Results published in PMC8854993, “Acetylation at Lysine 86 of Escherichia coli HUβ Modulates the DNA-Binding Capability of the Protein” (Frontiers in Microbiology, 2021).
The exact form of at least one protein or probe is not confirmed. At least one verdict rests on a figure or table, not on a statement of the authors.

The chains behind the UniProt entries cited, without tags or fusion partners. Where a name states a change or a piece, a line headed by the entry shows the natural chain unless it says otherwise.
UniProt P0ACF4: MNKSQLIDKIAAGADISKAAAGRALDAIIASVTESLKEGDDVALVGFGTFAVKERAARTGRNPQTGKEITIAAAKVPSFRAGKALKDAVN

Biological target: HUβ (Escherichia coli BL21(DE3)) (UniProt P0ACF4)
Test: EMSA
Conditions: homodimer; nick in bottom strand; 30 mM Tris pH 7.5, 100 mM NaCl, 0.02% Tween20, 0.5 mg/ml BSA; 30-bp DNA 1 µM, 18°C 10 min, 10% PAGE in TBE; long DNA 250 ng in 15 µL, 37°C 1 h, 0.5% agarose in TAE; recombinant protein; residues 1-90; protein details: C-terminal 6xHis

Q: Does “CCAACTTCCCTAACCCAGCTGCGATCCGTA / TACGGATCGCAGC / TGGGTTAGGGAAGTTGG [30-bp duplex with nick]” bind?
A: Result: binds
